Measurements from the supplement of paper PMC10849652.
Some of the results follow.

Sequences of proteins named here, by UniProt entry; tags and fusion partners are left off. A change or cut given only in a name is not applied to a line headed by its entry.
UniProt P23490: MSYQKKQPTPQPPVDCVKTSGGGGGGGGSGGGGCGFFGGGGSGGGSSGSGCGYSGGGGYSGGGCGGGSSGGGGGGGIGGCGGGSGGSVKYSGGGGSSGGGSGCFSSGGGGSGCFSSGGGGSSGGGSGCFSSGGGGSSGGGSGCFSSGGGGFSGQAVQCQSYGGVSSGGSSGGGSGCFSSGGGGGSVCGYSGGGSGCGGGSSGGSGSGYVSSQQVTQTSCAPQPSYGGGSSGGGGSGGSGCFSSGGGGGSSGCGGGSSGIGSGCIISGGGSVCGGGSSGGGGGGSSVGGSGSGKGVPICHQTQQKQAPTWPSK
UniProt Q6P1M3: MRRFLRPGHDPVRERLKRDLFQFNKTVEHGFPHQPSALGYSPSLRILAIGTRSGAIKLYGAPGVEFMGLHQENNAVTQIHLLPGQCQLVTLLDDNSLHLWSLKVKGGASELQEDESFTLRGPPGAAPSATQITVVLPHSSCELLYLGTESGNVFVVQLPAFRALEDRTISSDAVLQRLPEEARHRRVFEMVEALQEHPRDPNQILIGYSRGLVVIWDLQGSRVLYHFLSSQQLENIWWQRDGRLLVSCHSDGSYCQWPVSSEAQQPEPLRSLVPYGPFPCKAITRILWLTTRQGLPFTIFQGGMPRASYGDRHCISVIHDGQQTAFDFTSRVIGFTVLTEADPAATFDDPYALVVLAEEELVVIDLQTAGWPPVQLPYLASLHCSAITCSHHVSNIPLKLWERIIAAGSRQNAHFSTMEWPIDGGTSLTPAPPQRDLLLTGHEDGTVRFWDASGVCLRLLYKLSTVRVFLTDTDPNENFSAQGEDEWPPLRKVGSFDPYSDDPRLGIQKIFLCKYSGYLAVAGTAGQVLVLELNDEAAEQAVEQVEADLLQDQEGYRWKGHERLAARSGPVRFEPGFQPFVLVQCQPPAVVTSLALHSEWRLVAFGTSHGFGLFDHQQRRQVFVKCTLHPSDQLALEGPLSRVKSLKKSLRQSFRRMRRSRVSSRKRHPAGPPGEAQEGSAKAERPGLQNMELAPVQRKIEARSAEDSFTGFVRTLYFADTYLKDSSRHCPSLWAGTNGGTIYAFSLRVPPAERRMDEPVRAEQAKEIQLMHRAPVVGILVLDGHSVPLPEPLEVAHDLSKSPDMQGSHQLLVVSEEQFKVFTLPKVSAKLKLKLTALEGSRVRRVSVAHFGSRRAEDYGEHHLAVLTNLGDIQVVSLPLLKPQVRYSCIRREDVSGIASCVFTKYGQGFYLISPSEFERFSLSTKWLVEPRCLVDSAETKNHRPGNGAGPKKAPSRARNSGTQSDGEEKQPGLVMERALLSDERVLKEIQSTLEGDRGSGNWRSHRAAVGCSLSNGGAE
UniProt Q08380: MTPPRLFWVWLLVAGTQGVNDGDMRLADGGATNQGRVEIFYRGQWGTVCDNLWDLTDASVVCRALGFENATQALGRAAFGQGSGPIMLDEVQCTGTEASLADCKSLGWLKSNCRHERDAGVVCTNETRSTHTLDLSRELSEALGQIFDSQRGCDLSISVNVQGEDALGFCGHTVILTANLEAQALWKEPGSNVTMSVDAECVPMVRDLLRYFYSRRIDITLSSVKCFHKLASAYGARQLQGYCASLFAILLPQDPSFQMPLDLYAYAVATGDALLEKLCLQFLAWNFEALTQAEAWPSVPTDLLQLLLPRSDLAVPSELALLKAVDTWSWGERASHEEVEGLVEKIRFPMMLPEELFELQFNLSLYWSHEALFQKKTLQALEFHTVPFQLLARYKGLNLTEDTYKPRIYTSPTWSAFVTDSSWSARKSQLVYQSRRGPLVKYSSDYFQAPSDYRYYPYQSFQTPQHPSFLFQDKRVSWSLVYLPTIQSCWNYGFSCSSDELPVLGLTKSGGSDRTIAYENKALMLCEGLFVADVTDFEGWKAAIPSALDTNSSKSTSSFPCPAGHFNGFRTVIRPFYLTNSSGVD
UniProt Q53QV2: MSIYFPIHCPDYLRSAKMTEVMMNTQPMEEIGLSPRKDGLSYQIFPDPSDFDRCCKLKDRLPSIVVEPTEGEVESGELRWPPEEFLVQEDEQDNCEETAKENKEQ
UniProt Q07954: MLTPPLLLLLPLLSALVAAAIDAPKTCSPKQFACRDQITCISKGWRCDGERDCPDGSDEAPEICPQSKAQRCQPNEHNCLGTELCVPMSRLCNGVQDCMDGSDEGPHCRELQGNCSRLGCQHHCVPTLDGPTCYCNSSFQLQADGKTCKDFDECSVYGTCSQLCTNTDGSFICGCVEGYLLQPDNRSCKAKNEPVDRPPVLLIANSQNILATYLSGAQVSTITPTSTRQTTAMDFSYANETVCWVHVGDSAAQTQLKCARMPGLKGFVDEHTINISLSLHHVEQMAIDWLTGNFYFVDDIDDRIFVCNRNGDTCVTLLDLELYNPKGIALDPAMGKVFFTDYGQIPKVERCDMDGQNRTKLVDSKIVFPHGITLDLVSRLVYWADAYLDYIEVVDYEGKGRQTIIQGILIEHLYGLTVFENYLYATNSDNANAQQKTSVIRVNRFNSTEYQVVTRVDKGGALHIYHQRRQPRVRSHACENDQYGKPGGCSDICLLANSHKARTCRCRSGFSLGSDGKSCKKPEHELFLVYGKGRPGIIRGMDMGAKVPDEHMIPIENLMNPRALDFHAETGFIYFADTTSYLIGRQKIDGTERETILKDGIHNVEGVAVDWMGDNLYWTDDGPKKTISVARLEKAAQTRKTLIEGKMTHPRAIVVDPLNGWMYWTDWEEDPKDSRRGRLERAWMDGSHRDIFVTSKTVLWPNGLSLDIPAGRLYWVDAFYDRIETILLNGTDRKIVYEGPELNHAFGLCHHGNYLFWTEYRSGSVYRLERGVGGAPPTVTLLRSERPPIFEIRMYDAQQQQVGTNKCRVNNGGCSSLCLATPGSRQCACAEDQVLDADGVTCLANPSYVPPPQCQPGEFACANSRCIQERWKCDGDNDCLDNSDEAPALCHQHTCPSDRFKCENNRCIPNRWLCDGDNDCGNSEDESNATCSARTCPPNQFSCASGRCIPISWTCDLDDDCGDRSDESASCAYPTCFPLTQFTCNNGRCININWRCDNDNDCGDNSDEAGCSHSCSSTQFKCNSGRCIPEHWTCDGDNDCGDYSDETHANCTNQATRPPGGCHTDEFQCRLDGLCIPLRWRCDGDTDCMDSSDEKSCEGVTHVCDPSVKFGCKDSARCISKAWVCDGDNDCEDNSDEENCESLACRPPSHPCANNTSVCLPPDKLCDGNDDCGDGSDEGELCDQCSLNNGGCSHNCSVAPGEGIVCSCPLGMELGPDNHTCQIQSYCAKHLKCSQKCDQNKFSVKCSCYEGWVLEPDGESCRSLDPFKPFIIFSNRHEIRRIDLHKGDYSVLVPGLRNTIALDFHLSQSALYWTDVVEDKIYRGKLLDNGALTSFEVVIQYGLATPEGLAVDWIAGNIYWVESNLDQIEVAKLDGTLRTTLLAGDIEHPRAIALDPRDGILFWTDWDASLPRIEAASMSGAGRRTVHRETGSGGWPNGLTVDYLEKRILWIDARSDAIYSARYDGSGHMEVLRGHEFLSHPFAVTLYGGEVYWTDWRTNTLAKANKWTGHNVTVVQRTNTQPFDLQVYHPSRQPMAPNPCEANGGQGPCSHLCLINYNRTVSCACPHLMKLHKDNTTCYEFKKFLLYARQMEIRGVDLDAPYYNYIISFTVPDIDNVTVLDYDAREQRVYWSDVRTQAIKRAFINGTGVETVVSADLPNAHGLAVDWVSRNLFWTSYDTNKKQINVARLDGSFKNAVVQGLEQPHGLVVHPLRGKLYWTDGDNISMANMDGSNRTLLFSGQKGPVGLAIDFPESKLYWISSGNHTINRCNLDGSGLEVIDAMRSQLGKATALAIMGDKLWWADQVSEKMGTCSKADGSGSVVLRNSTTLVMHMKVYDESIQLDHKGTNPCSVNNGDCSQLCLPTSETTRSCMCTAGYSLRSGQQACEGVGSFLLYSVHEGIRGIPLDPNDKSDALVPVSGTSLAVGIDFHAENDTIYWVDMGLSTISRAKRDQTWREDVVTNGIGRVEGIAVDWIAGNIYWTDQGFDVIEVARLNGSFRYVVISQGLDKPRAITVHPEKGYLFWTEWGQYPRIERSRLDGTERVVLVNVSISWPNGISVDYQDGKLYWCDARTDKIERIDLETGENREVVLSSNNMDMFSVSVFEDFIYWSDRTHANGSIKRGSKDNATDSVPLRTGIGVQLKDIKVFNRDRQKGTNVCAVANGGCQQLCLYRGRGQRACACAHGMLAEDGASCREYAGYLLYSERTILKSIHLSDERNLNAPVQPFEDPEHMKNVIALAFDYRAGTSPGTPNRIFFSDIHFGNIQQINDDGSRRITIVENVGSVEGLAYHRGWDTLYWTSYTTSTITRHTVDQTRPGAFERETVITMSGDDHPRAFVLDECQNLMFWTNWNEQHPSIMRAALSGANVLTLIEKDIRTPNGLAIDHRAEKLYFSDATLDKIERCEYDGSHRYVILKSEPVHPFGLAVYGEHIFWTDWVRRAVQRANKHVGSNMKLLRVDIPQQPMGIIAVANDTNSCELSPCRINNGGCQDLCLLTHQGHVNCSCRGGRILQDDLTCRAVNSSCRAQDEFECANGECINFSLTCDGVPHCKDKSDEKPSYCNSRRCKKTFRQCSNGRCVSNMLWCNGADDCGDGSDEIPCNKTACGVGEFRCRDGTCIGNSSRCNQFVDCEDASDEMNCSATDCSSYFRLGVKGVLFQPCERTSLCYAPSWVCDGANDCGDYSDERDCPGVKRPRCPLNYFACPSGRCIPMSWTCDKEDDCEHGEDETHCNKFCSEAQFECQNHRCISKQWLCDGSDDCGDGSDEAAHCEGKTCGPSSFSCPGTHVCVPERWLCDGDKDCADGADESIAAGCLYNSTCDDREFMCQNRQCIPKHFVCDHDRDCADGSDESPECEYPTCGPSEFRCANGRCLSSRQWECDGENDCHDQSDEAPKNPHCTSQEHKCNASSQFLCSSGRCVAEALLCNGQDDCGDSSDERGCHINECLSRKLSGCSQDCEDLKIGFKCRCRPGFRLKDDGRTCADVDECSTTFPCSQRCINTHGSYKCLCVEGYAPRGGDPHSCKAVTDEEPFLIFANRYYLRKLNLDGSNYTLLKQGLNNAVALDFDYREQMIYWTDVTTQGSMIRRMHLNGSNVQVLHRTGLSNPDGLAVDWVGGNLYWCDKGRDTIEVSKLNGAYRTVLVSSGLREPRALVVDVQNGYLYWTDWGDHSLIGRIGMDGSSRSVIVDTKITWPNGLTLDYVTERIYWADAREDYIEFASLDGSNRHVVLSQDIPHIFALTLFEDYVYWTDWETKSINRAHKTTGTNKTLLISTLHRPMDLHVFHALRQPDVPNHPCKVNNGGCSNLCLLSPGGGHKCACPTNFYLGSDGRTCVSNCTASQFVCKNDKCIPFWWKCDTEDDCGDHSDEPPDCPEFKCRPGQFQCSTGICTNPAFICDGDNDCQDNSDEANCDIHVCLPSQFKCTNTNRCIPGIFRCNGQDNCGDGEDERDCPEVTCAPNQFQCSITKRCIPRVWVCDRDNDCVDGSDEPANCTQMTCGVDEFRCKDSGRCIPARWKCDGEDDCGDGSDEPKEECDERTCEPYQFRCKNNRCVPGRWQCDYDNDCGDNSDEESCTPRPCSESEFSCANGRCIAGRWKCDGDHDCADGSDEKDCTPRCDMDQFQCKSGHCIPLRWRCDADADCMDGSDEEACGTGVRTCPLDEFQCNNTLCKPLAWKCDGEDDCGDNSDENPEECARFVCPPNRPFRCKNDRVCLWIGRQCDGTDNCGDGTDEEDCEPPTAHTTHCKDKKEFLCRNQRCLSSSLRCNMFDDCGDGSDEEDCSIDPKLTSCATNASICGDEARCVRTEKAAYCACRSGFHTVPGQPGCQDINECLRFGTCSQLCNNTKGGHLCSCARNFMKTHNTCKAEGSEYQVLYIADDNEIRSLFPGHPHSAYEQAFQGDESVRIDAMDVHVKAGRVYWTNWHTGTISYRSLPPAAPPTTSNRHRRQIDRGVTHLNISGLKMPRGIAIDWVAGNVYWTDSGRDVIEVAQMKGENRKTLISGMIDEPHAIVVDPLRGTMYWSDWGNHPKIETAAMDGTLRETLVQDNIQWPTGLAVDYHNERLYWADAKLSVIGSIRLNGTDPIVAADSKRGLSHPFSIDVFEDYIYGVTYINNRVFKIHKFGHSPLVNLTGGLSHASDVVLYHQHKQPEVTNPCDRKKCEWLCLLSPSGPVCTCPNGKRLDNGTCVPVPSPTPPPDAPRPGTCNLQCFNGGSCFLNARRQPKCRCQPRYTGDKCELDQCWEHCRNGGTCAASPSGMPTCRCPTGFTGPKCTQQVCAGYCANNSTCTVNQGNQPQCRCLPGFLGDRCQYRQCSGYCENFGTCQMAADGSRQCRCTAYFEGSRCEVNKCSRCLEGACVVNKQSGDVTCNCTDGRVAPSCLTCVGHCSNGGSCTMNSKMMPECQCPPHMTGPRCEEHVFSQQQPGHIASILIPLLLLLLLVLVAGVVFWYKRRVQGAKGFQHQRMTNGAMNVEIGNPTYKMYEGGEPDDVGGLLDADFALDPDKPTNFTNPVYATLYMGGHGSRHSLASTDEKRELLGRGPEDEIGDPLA

compound: O=C1NC(=O)C(c2cnc3ccccn23)=C1c1cn2c3c(cc(F)cc13)CN(C(=O)N1CCCCC1)CC2; test: log2 fold change, soluble protein after heating vs DMSO (PISA); higher = thermal stabilisation; K562 cells, 10 uM, 30 min; active = over 0.2 and 3.5 SD of the protein, either way, in both replicates (recomputed)
How it was run: (§1)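 Aliquots of K562 cells (2×10^6 cells/mL) treated with 10 μM compound for 30 min were heated for 3 min over 48°C-58°C. After pooling and extraction in PBS with 0.5% NP-40 at 4°C, soluble protein from a 21,000xg, 90 min spin was quantified by TMTpro 16plex LC-MS/MS with channel sums equalised. Thermal stability is expressed against control samples, from duplicates, as a log2 fold change.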

log2 fold change, inactive:
LLGL1 (UniProt Q15334) 0.068
LOR (UniProt P23490) -0.187
LLGL2 (UniProt Q6P1M3) -0.007
LDHC (UniProt P07864) 0.066
LGALS3BP (UniProt Q08380) 0.048
LPP (UniProt Q93052) -0.009
LBH (UniProt Q53QV2) 0.003
KXD1 (UniProt Q9BQD3) 0.131
LAMP2 isoform 2 (UniProt P13473) 0.027
LPCAT4 (UniProt Q643R3) 0.205
LHFPL2 (UniProt Q6ZUX7) -0.036
LRP5 (UniProt O75197) -0.003
LRP1 (UniProt Q07954) -0.018
LMLN isoform 3 (UniProt Q96KR4) 0
LEPROT (UniProt O15243) 0.261
LRCH4 (UniProt O75427) -0.062
LAMA5 (UniProt O15230) 0.114
LIMK1 (UniProt P53667) 0

compound: c1cc(OCCN2CCCCC2)cc(-c2n[nH]c3ccc(-c4nnc[nH]4)cc23)c1; test: as above
How it was run: as §1

log2 fold change, inactive:
LINC00526 (UniProt Q96FQ7) 0.035
LEPROTL1 isoform 2 (UniProt O95214) -0.174
LRRC14 (UniProt Q15048) -0.063
LOR (UniProt P23490) 1.57
LLGL2 (UniProt Q6P1M3) -0.219
LGALS3BP (UniProt Q08380) 0.005
LARP1B, A0A3B3ISF0 -0.48
LGALS3 (UniProt P17931) 0.072
KXD1 (UniProt Q9BQD3) -0.055
LAMP2 isoform 2 (UniProt P13473) -0.275
LRP1 (UniProt Q07954) 0.089
LEPROT (UniProt O15243) -0.072
LRCH4 (UniProt O75427) -0.062
LMO4 (UniProt P61968) 0.116

compound: c1cn2cc(-c3ccc4cn[nH]c4c3)nc(Nc3ccc(N4CCOCC4)cc3)c2n1 [entospletinib]; test: as above
How it was run: as §1

log2 fold change, inactive:
LINC00526 (UniProt Q96FQ7) 0.01
LEPROTL1 isoform 2 (UniProt O95214) 0.033
LRRC14 (UniProt Q15048) 0.028
LOR (UniProt P23490) -0.313
LLGL2 (UniProt Q6P1M3) 0.052
LGALS3BP (UniProt Q08380) -0.021
LARP1B, A0A3B3ISF0 0.088
LGALS3 (UniProt P17931) -0.095
LRP1 (UniProt Q07954) -0.136
LRCH4 (UniProt O75427) 0.507
LMO4 (UniProt P61968) -0.057
